These are yes or no findings as the source states them, for the method shown. Binding seen in cells or lysates may run through a third protein. Some binding calls cover weakened binding; strength is not graded here.
Biological target: TWIST1 (UniProt Q15672)
Test: co-IP; HCC827 cells transfected with HA-USP51, Flag-TWIST1 and/or His-ubiquitin plasmids for 24 h, in the presence of MG132; anti-Flag antibody on protein A/G beads, lysate incubated 4 °C 6 h; buffer 150 mmol/L NaCl, 50 mmol/L Tris-HCl pH 7.4; Western blotting

Amino acid sequences for entries named in this document (tags omitted).
UniProt Q15672: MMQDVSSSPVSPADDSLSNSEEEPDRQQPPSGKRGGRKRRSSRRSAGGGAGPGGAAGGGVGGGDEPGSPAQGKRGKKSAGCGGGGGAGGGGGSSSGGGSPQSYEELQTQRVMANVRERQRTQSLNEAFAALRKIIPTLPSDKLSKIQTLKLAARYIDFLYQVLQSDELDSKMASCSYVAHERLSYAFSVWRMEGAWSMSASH

- binding: binds
B1: USP51 (enzyme, UniProt Q70EK9 1-711)
chain: MAQVRETSLPSGSGVRWISGGGGGASPEEAVEKAGKMEEAAAGATKASSRREAEEMKLEPLQEREPAPEENLTWSSSGGDEKVLPSIPLRCHSSSSPVCPRRKPRPRPQPRARSRSQPGLSAPPPPPARPPPPPPPPPPPAPRPRAWRGSRRRSRPGSRPQTRRSCSGDLDGSGDPGGLGDWLLEVEFGQGPTGCSHVESFKVGKNWQKNLRLIYQRFVWSGTPETRKRKAKSCICHVCSTHMNRLHSCLSCVFFGCFTEKHIHKHAETKQHHLAVDLYHGVIYCFMCKDYVYDKDIEQIAKETKEKILRLLTSTSTDVSHQQFMTSGFEDKQSTCETKEQEPKLVKPKKKRRKKSVYTVGLRGLINLGNTCFMNCIVQALTHIPLLKDFFLSDKHKCIMTSPSLCLVCEMSSLFHAMYSGSRTPHIPYKLLHLIWIHAEHLAGYRQQDAHEFLIAILDVLHRHSKDDSGGQEANNPNCCNCIIDQIFTGGLQSDVTCQACHSVSTTIDPCWDISLDLPGSCATFDSQNPERADSTVSRDDHIPGIPSLTDCLQWFTRPEHLGSSAKIKCNSCQSYQESTKQLTMKKLPIVACFHLKRFEHVGKQRRKINTFISFPLELDMTPFLASTKESRMKEGQPPTDCVPNENKYSLFAVINHHGTLESGHYTSFIRQQKDQWFSCDDAIITKATIEDLLYSEGYLLFYHKQGLEKD
